The values that follow come from publication PMC4794243.

The chains behind the UniProt entries cited, without tags or fusion partners.
UniProt P53115: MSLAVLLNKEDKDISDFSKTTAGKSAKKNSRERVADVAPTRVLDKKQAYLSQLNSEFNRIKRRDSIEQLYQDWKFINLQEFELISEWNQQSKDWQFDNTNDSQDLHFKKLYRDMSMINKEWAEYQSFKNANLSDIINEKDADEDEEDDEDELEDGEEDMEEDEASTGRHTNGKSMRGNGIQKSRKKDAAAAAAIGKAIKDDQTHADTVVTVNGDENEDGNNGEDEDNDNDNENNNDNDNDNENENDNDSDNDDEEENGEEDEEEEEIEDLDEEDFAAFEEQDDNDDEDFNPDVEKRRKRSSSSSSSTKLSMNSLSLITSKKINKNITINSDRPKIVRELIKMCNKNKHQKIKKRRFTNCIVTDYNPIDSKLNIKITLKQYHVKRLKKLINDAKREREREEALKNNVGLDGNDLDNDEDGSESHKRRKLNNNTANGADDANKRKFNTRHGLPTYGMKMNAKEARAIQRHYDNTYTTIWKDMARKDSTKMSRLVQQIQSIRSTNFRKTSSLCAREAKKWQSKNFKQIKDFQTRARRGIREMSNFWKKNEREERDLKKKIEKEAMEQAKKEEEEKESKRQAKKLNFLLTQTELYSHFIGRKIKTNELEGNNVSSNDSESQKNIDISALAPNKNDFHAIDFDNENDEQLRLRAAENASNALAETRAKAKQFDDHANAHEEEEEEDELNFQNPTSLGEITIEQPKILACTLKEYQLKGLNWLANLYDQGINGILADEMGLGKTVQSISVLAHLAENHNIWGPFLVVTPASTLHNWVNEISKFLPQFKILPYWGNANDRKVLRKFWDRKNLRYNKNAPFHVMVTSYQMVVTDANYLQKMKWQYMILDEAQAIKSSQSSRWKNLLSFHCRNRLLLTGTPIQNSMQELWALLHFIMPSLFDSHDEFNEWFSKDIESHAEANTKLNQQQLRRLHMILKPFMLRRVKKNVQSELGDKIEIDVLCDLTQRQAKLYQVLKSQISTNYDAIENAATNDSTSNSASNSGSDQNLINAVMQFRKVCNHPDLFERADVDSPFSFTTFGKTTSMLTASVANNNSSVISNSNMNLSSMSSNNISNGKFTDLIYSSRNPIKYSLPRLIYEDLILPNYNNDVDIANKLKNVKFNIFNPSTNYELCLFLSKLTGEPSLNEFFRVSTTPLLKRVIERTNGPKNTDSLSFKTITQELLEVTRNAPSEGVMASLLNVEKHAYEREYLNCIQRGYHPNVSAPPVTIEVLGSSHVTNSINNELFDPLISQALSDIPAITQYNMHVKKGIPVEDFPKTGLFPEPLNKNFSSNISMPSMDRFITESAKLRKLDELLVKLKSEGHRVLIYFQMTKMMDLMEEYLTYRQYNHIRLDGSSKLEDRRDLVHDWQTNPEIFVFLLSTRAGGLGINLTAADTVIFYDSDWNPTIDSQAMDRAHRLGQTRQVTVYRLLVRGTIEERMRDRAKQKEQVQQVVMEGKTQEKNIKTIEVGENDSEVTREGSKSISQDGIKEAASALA
UniProt P36012: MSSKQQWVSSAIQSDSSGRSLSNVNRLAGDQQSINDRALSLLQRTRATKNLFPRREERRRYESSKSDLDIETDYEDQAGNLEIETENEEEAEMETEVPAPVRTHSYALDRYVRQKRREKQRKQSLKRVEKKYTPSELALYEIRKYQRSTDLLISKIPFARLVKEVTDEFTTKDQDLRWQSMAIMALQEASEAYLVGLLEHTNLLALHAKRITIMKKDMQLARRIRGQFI

Assay [1] concerns the target Ino80-13Myc (S. cerevisiae (budding yeast)) (UniProt P53115). As to the kind of experiment: co-IP; anti-Myc (A-14, SC-789) on Protein G Dynabeads from extracts of yeast strains with Psh1-13Myc or Ino80-13Myc and overexpressed 3Flag-Cse4, gradient SDS-PAGE and immunoblot; Ino80-13Myc strains with PSH1 and with psh1Δ. A general note: A western blot detects proteins with antibodies after separation by electrophoresis.

The target of assay [2] is T1, Psh1-13Myc (S. cerevisiae (budding yeast)) (UniProt Q12161).
T1 sequence: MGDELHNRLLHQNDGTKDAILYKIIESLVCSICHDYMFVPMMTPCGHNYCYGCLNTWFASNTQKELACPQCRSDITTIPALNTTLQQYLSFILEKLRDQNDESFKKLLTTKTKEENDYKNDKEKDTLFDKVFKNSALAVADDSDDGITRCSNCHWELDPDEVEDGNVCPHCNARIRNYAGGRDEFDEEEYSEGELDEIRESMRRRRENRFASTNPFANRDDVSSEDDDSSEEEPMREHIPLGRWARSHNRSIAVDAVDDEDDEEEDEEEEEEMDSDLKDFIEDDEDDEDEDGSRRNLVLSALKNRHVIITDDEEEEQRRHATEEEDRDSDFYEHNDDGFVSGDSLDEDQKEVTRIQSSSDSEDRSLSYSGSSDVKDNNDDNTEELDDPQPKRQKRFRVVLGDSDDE
The description is as above.

Results are given in words; binding and its absence hold for the method and conditions named. Binding seen in cells or lysates may run through a third protein. Some binding calls cover weakened binding; strength is not graded here. For some assays here: Where a sequence is shown, tags or fusion partners need not be part of it.

Take “3Flag-Cse4 (budding yeast CENP-A, overexpressed from pGAL-3Flag-CSE4) (from UniProt P36012 1-229)”: the binding result in assay [1] and in assay [2] was “binds” in each case.
